# Some of the results follow. These are further read-outs of the screen, such as a control signal, another cell line or another target. No call is given for them. Most of these compounds were active or inconclusive in the main read-out, so they are no random draw. The note in brackets gives the kind of curve behind each potency; many fits are weak.
# Test: qHTS Assay for Lipid Storage Modulators in Drosophila S3 Cells;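 as to cell number change: cells counted by Cell Tracker Red CMTPX staining in the red channel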
# Settings: BODIPY lipid droplet fluorescence, 18-24 h; for cell number change: measured here: cell count max response, cells fed with added oleic acid
# Procedure, shortened: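 Drosophila S3 cells got compounds at several concentrations plus oleic acid (400 uM solution). Laser-scanning cytometry with 488 nm excitation read lipid droplets at 500-530 nm and cells at 575-640 nm. Percent activity was relative to 20 uM Triacsin C.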
# [1] = measured here: lipid fluorescence (Fed channel) AC50, cells fed with added oleic acid
# [2] = measured here: cell number channel AC50, cells fed with added oleic acid
SMILES,cell number change [%],AC50 [1],AC50 [2]
Cc1nc(C)c(-c2csc(Nc3ccc(O)cc3C)n2)s1,-6.67,"18.4 µM [rising, single point]",–
CC(=O)c1c(C)cc(C)c(CSc2nc(C)cc(=O)[nH]2)c1C,1.28,"29.1 µM [rising, single point]",–
COc1ccc2c(OC)c3ccoc3nc2c1OC,5.87,"8.2 µM [falling, partial curve]",–
O=C1NC(Nc2nc3ccccc3s2)(C(F)(F)F)C(=O)N1C1CCCCC1 (stereo not given),-62,"13 µM [falling, partial curve]","25.9 µM [falling, partial curve, poor fit]"
Fc1ccccc1N1CCN(C2CCCN(Cc3cccc(C(F)(F)F)c3)C2)CC1 (stereo not given),-26.3,–,–
O=C(Nc1ccc(F)cc1Cl)C1CCN(C(=O)Nc2ccccc2)CC1,5.92,"29.1 µM [rising, single point]",–
CC(=O)Nc1nc(C)c(Oc2cccc(C(F)(F)F)c2)c(=O)[nH]1,5.51,–,–
O=C(c1ccc(F)cc1)N(NC(=O)C(O)(c1ccccc1)c1ccccc1)c1ccccc1,-5.12,–,"0.13 µM [rising, full curve, poor fit]"
CCOc1ccccc1N1CC(C(=O)N(C)Cc2cccnc2)CC1=O (stereo not given),22.2,"20.6 µM [falling, partial curve, poor fit]",–
C=CCn1cc(C(=O)NCCOC)c(=O)c2cc(S(=O)(=O)N3CCCCCC3)ccc21,25.2,"4.61 µM [falling, single point]",–
CCOc1ccc(NC(=O)CNc2ccc(C)cc2Cl)cc1,68.2,–,"20.6 µM [rising, partial curve]"
CC1(C)CC(=O)C2=C(C1)OC(/N=C/N1CCOCC1)=C(C#N)C2c1ccccc1 (stereo not given),42.9,"3.66 µM [rising, single point]","7.31 µM [rising, partial curve, poor fit]"
CCCN1CCN(S(=O)(=O)c2ccc(OC)c(Br)c2)CC1,-11,–,–
CN(CC(=O)Nc1cccc(F)c1)C(=O)Cn1c(=O)oc2ccccc21,-19,"0.291 µM [falling, partial curve, poor fit]",–
COc1cnn(Cc2ccccc2)c(=O)c1SCc1ccccc1,-1.45,"0.0231 µM [falling, full curve, poor fit]",–
COc1cc(NC(=O)CSCC(=O)N(C)C2CCCCC2)cc(OC)c1,-56.5,"1.46 µM [falling, full curve]","13 µM [falling, partial curve]"
c1ccc(C(c2nnnn2C2CCCCC2)N2CCc3ccccc3C2)nc1 (stereo not given),-12.5,"0.366 µM [rising, full curve, poor fit]","4.11 µM [rising, single point]"
CC(=O)c1ccc(NC(=S)N2CCCCCC2)cc1,-22.4,"14.1 µM [falling, partial curve, poor fit]",–
CCCCN(C(=S)Nc1ccc(F)cc1)c1c(N)n(CCC)c(=O)[nH]c1=O,0.683,–,–
O=C(Nc1ccn(Cc2ccccc2)n1)c1n[nH]c([N+](=O)[O-])c1Cl,2.07,"0.00411 µM [rising, full curve, poor fit]",–
CC(C)(C)OC(=O)N[C@@H](Cc1ccccc1)C(=O)NCC1CCC(C(=O)O)CC1 (stereo not given in full),-27.2,–,–
CCCCN(C)CCOc1ccccc1OCC,–,–,"6.51 µM [rising, single point]"
CCOC(=O)c1ccc2c(c1)N(C)C(=O)c1ccccc1S2,1.11,–,–
Cc1[nH]nc(-c2ccc(O)c(C)c2O)c1Oc1ccccc1,-72.9,–,"1.16 µM [falling, full curve]"
COc1cc(C(=O)NC2=NCCS2)ccc1OCc1c(C)noc1C,-12.3,–,–
CCOC(=O)C1=C(c2ccccc2)NC(SCC(=O)Nc2ccccc2C)=C(C#N)C1c1ccco1 (stereo not given),–,"0.164 µM [rising, full curve, poor fit]",–
CCOc1ccc(/C=N/NC(=O)CNC(=O)c2ccc(S(=O)(=O)N3CCOCC3)cc2)cc1,10.2,"0.00461 µM [falling, full curve]",–
O=C(N[C@@H](Cc1c[nH]c2ccccc12)C(=O)O)OCC1c2ccccc2-c2ccccc21,3.74,–,–
COc1ccc(-c2oc3ccccc3c2C#CC(C)(C)O)cc1,-71.6,"0.184 µM [rising, full curve, poor fit]","4.11 µM [falling, partial curve]"
O=C(O)C(c1ccccc1)C1(O)CCCC1 (stereo not given),1.82,"3.26 µM [falling, full curve]",–

# Already shown: 2 of the compounds above.
SMILES,cell number change [%],AC50 [1],AC50 [2]
Cc1nc(C)c(-c2csc(Nc3ccc(O)cc3C)n2)s1,-6.67,"18.4 µM [rising, single point]",–
CC(=O)c1c(C)cc(C)c(CSc2nc(C)cc(=O)[nH]2)c1C,1.28,"29.1 µM [rising, single point]",–

# Reference: PubChem BioAssay AID2685 (National Center for Advancing Translational Sciences (NCATS), 2010)
